In paper PMC3826745:
Results are given in words; binding and its absence hold for the method and conditions named. Binding seen in cells or lysates may run through a third protein. Some binding calls cover weakened binding; strength is not graded here. Sequences can lack the tags named with a protein. Values belong to the binder of their own block, whether it stands above or below them.

Legend:
[1] = molecular target: T1, N-terminally tagged Neurospora crassa eIF3h (Neurospora crassa) (UniProt Q7S9Y9); assay: co-IP; anti-FLAG affinity purification from N. crassa extracts, FLAG peptide elution, Coomassie gel; N-terminally tagged eIF3h in ΔeIF3h, N-terminally tagged eIF3k in ΔeIF3k, or heterokaryon with N-terminally tagged eIF3k and eIF3l (all 12 subunits present)
T1 sequence: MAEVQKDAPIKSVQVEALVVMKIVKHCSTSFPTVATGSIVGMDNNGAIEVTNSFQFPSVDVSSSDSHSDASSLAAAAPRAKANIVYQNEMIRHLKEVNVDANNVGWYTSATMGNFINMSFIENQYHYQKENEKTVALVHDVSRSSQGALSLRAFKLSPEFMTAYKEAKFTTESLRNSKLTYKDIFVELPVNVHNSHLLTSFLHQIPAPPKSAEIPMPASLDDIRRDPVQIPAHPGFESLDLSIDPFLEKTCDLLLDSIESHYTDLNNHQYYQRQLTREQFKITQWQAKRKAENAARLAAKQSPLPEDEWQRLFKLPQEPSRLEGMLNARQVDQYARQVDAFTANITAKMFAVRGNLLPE

[2] = molecular target: T2, N-terminally tagged Neurospora crassa eIF3k (Neurospora crassa) (UniProt Q7S2R9); assay: as above
T2 sequence: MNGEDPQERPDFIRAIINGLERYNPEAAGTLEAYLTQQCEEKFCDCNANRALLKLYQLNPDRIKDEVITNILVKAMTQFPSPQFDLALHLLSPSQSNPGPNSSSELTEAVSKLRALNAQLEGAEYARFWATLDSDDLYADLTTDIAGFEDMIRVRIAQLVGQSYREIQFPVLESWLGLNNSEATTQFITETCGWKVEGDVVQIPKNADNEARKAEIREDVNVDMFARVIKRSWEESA

[3] = molecular target: T2, N-terminally tagged Neurospora crassa eIF3k (Neurospora crassa); assay: co-IP; anti-FLAG affinity purification from N. crassa extracts, Coomassie gel; N-terminally tagged eIF3k in the ΔeIF3hk strain

binding [1]: binds
B1: Neurospora crassa eIF3m (protein, UniProt Q7SEK1 1-434)
chain: MATPQLIFVDGTFAELAQEMADFVQVGEQVQPLLEQDKREDALDLIVKASHSLNAAPEKDFTPAYNLLIHLVLQSEEPKKYLPTLCANLLKPITSSPTHGFTLASNALTTIFNLLDKSNPLRFNVFMQIVRFIRQNSQFDLLKPRLKNVEGWLQEWKSDSESQRKLYVEVSDAANDGGDQEESYFYLLKALATFDRDNQDEVASDEAQKLSLRALRMAISSPTRFDFNDLRSLPSVHALSDSHPVYSQLLDIFTEQDLEDYNDFRDEHQGWIENEKLDHEKLQRKMRLLTFASLAASTPNREIPYASIAKALQIPDEDVEMWTIDVIRSKLVEGRLSQKQKVFLVHRTTYRVFGEKQWRELGTRVDQFKTVVDRLVGVVRKAQTDVEAQREREQQELERKLANAGLGESEQRGGNRGGRTGGARQTRQRTDDDD

binding [2]: no binding
binding [1]: no binding
B2: Neurospora crassa eIF3j (protein, UniProt Q7S931 1-274)
chain: MSGKKWDEEEEESSAPNSPVLAPGRRRFDDEEGNESDVLDSWDAAEDSEVEREKAKKAAEAKAKAEAEAAANKKSKAQRIAERQAERARQLAEDSDAEEETEAERRERLRREQKESDLKHAEDLFAGIGISNDRKVVSKGTIVQIDPKDPNNTIDISTLALFNPTTKTQFETLRTTLGPMIGKLSPKPHYTLFLQEFSKQLAKDLKSDEIKKIASTLTALSNEKLKEEKAAEKGGKKSKAAKTKTSLAGVGRGGAIAEAHDTYDDDAFGDDDFM

binding [3]: binds
binding [2]: binds
B3: Neurospora crassa eIF3l (protein, UniProt Q7SB62 1-474)
chain: MSAFQQAQAPARAIDPDSDVEEEALVNDYKEQVQYEEDDAESTQMSLAAQTDDIQSRLAAAAQPLDYSAGLEVKFSSYDSYCSLFHFILNSEGPVDLEPPSYYWAWDVIDEFIYQFNSFSSYRARIARQGNNEEEIAMLRENPNTWGCYSVLNVLYSLIQKSQITEQLAAMKRNEDPAAVAGEYGSKNLYKMLGYFSIIGLLRVHTLLGDFSLALKTLDDIELNKKAMFARVMAAHFTTYYYVGFSYMMMRRYADAIRMFSHILVYVSRTKNFQKNAQYDSITKKNDQMYALIAICVAFQPTRLDDTIHTALREKYGDQLLKLQRGGPEALPIYEELFRTACPKFISPVPPNFDEPEANIDPIEHHLSVFMDEVKTNMFNPTIKSYLRLYTTMDLKKLAGFLEVKPEELRGWLMVNKQRTKQLRWTDGGLLEGELVNVSDLDYALQGDLIHISEAKVGRKLVDWYLRNLSRTYA
